The whole screen tested about 320,000 compounds, of which about 22,000 (6.9%) were called active. The shares of active, inactive and inconclusive entries below differ from those in the screen. The call rests on the fitted dose curve; in most records, active means well fitted inhibition curve with a large enough effect; inconclusive means small, poorly fitted or top-dose-only effect, or another doubt; inactive means no such curve, though single readings can be large or run the other way. A potency beside an inconclusive call is a rough fit, not a confirmed value.
Experiment: Primary qHTS for delayed death inhibitors of the malarial parasite plastid, 96 hour incubation
Details: P. falciparum luciferase reporter growth; series mostly up to 28.7 µM
Method in brief: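 Two-generation exposure (96 h) targets delayed-death phenotype. Reporter parasites carrying integrated firefly luciferase, in red cells at 2% hematocrit and 0.05% parasitemia final, kept at 37 C, 5% CO2; luminescence loss indicates inhibition.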
Potency means the concentration at half of the fitted maximal effect.

Structure (SMILES)	Potency
Cc1cc(C(=O)N2CCC(Cc3ccccc3)CC2)ccc1[N+](=O)[O-]	inconclusive: 0.165 µM [inhibitor, partial curve, poor fit]
N#Cc1ccc(NC(=O)c2cccs2)nc1	inactive
Cc1ccc(C)c(N2CCN(c3ccc4cc(S(=O)(=O)N5CCCCC5)ccc4n3)CC2)c1	active: 9.28 µM
CN1C(=O)c2ccccc2NC(=O)[C@]12O[C@@H]2c1ccccc1	inactive
COc1ccc(S(=O)(=O)N2CCN(CCc3ccccc3)CC2)c(OC)c1	inconclusive: 18.5 µM [inhibitor, single point]
CCn1c(SCC(=O)NCCc2ccccc2)nnc1-c1ccco1	inconclusive: 13.1 µM [inhibitor, partial curve, poor fit]
COCc1cc(C)nc2sc(C(=O)Nc3ccccc3Br)c(N)c12	inconclusive: 0.415 µM [inhibitor, partial curve, poor fit]
COc1ccc(C(CCO)NC(=O)c2cccs2)cc1OC (stereo unspecified)	inconclusive: 18.5 µM [inhibitor, single point]
O=C(COc1ccc(Br)cc1)Nc1ccc(S(=O)(=O)Nc2ccccn2)cc1	inconclusive: 13.1 µM [inhibitor, partial curve, poor fit]
CN(C(=O)c1ccoc1)c1ccc2ccccc2c1	inconclusive: 18.5 µM [inhibitor, single point]
O=c1cc(CSc2nnnn2-c2ccccc2)nc(Nc2ccc(F)cc2)[nH]1	inconclusive: 0.928 µM [inhibitor, partial curve, poor fit]
CC(=O)c1ccc(N2CCC(c3cc(-c4ccc(Cl)cc4Cl)n[nH]3)CC2)c([N+](=O)[O-])c1	inconclusive: 0.0131 µM [inhibitor, full curve, poor fit]
CCCCCCNC(=O)c1cc(-c2ccco2)nc2ccccc12	inconclusive: 18.5 µM [inhibitor, single point]
CCCCOc1ccc(N(CC(=O)NCCOC)C(=O)CCC(=O)Nc2ccccn2)cc1	inconclusive: 11.7 µM [inhibitor, single point]
COc1cccc(NC(=S)NCc2cccs2)c1	inactive
COCCNC(=O)c1onc(CSc2cc(C)cc(C)c2)c1C(=O)O	inactive
CCn1cc(CN2CCC(n3nccc3NC(=O)Cc3ccccc3)CC2)c(C)n1	inactive
COc1ccc(N(C(=O)Cc2cccs2)C(C(=O)NC2CCCC2)c2ccncc2)cc1OC (stereo unspecified)	inconclusive: 14.7 µM [inhibitor, single point]
CCCNC(=O)c1cccc(Br)c1	inconclusive: 18.5 µM [inhibitor, single point]
OCC1(CCCc2ccccc2)CCN(Cc2ccc(F)cc2)CC1	inactive
COc1ccc(Cl)cc1C(=O)N1CCC2(CC1)CC(=O)c1ccccc1O2	inconclusive: 13.1 µM [inhibitor, partial curve, poor fit]
COC(=O)c1ccc(/C=C2/SC(=S)N(CCC(=O)N3CCOCC3)C2=O)cc1	inactive
COc1ccccc1NC(=O)/C=C/C(N)=O	inconclusive: 7.38 µM [inhibitor, partial curve]
CCCCNC(=O)C(CC)Sc1nc2sc(C(=O)OC)c(C)c2c(=O)n1N (stereo unspecified)	inactive

Copied from the list.
Value for `COc1ccc(N(C(=O)Cc2cccs2)C(C(=O)NC2CCCC2)c2ccncc2)cc1OC` (stereo unspecified) under Potency: inconclusive: 14.7 µM [inhibitor, single point]
Value for `COc1ccc(Cl)cc1C(=O)N1CCC2(CC1)CC(=O)c1ccccc1O2` under Potency: inconclusive: 13.1 µM [inhibitor, partial curve, poor fit]
Value for `CCCCOc1ccc(N(CC(=O)NCCOC)C(=O)CCC(=O)Nc2ccccn2)cc1` under Potency: inconclusive: 11.7 µM [inhibitor, single point]
Value for `O=C(COc1ccc(Br)cc1)Nc1ccc(S(=O)(=O)Nc2ccccn2)cc1` under Potency: inconclusive: 13.1 µM [inhibitor, partial curve, poor fit]

(continued)

Structure (SMILES)	Potency
CCn1c(C)[n+](CCOC(C)=O)c2cc(Cl)c(Cl)cc21	inactive
O=C(O)CSc1nc(-c2ccccc2)nc2c1oc1ccccc12	inconclusive: 3.29 µM [inhibitor, full curve]
CCn1c(SCC(=O)OC)nnc1-c1ccccc1	inactive
CCS(=O)(=O)N1CCC(NC(=O)C(Cc2cc(OC)ccc2OC)NC(C)=O)CC1 (stereo unspecified)	inconclusive: 13.1 µM [inhibitor, single point]
COc1ccccc1NS(=O)(=O)c1cccc(C(=O)NNC(=O)c2ccc(O)c(Cl)c2)c1	inconclusive: 11.7 µM [inhibitor, partial curve, poor fit]
Nc1c(Cl)ncnc1N/N=C/c1ccccn1	active: 2.94 µM
COc1c(C(=O)NNC(=O)c2ccccc2)csc1Br	inactive
CCOc1ccc(NS(=O)(=O)c2ccc(OCC(=O)NCCCOC)cc2)cc1	inconclusive: 10.4 µM [inhibitor, single point]
Cc1ccc2nc(Nc3nc(-c4ccccc4)cc(=O)[nH]3)nc(C)c2c1	inconclusive: 0.0329 µM [inhibitor, full curve, poor fit]
COc1ccc(C(=O)N(C)Cc2cnn(Cc3ccccc3)c2)cc1S(=O)(=O)N1CCOCC1	inconclusive: 13.1 µM [inhibitor, single point]
COCCCN1C(=O)C(=O)/C(=C(/O)c2ccc(S(=O)(=O)N3CCCCC3)cc2)C1c1ccc(O)cc1 (stereo unspecified)	inconclusive: 18.5 µM [inhibitor, single point]
CCOc1cccc2cc(-c3nnc(NCc4ccco4)s3)c(=O)oc12	inconclusive: 0.0928 µM [inhibitor, full curve, poor fit]
O=C1N/C(=N/N=C/c2ccccc2)SC1(c1ccccc1)c1ccccc1	inactive
COc1ccc(CCCC(=O)N/N=C\c2cccs2)cc1	inconclusive: 18.5 µM [inhibitor, single point]
CN(C)S(=O)(=O)c1cccc(NC(=O)c2ccc(COc3ccccc3)cc2)c1	inconclusive: 9.28 µM [inhibitor, partial curve]
COc1ccc(NC(=O)/C=C/c2cc(Br)ccc2OC)cc1	inactive
CCc1nnc(NC(=O)c2ccc3c(=O)n4c(nc3c2)CCCCC4)s1	inactive
CC(C)CCNC(=O)C(c1ccc(O)cc1)N(C(=O)C1COc2ccccc2O1)c1cccc(O)c1 (stereo unspecified)	inconclusive: 10.4 µM [inhibitor, single point]
COC(=O)C1=C(c2ccc(F)cc2OCc2ccccc2)C[C@@H]2CC[C@H]1N2C(=O)NCc1ccccc1Cl	active: 4.15 µM
Cc1ccc(NC(NC(=O)c2cccs2)C(Cl)(Cl)Cl)cc1 (stereo unspecified)	inconclusive: 18.5 µM [inhibitor, single point]
CC(C)(C)n1nc2c(c1NC(=O)c1ccc([N+](=O)[O-])cc1)CS(=O)(=O)C2	active: 8.28 µM
COC(=O)c1ccc(S(=O)(=O)N2CCc3ccccc32)cc1	active: 9.28 µM
COCc1nnc(NC(=O)CCCOc2ccccc2OC)s1	inconclusive: 1.17 µM [inhibitor, partial curve]
COc1ccccc1-n1nnnc1SCC(=O)N(CC(C)C)C1CCS(=O)(=O)C1 (stereo unspecified)	inconclusive: 18.5 µM [inhibitor, single point]

Structure (SMILES)	Potency
CC1CCCC(NC(=O)CSC2CCCCC2)C1C (stereo unspecified)	inactive
COc1cccc(OCC(=O)N2CCC3(CC2)CC(=O)c2ccccc2O3)c1	inconclusive: 10.4 µM [inhibitor, single point]
CC(NS(=O)(=O)c1ccc(OCC(=O)NCc2ccncc2)cc1)c1ccccc1 (stereo unspecified)	inconclusive: 14.7 µM [inhibitor, partial curve]
O=C(c1cnccn1)N(Cc1cccs1)C1(C(=O)NC2CCCC2)CCCCC1	inconclusive: 13.1 µM [inhibitor, single point]
O=S(=O)(c1ccccc1F)N1CCN(CCOc2ccccc2)CC1	inconclusive: 18.5 µM [inhibitor, single point]
CCOc1ccc(NC(=O)[C@@H]2CCC(=O)N2C2OC(=O)c3ccccc32)cc1 (stereo partly specified)	inactive
CC1CC(C)CN(C(=O)c2cccc3c2-c2ccccc2C3=O)C1 (stereo unspecified)	inconclusive: 14.7 µM [inhibitor, single point]
CN1CCc2c(sc3c2C(=O)NC(c2ccco2)N3)C1 (stereo unspecified)	inconclusive: 10.4 µM [inhibitor, single point]
COc1cc(NC(=O)C2CCCCC2)c(OC)cc1NC(=O)c1ccccc1	inconclusive: 4.15 µM [inhibitor, single point]
CCCn1c(C(C)Nc2nc(-c3ccc(OC)cc3)cs2)nc2ccccc21 (stereo unspecified)	inconclusive: 18.5 µM [inhibitor, single point]
O=C(CCC1CCN(C(=O)Cc2c(F)cccc2F)CC1)NC1CC1	inactive
CCOC(=O)/C(=C\C=C1/Sc2ccccc2N1CC)C(C)=O	inactive
O=C(NCCc1ccc(Cl)cc1)c1ncn[nH]1	inconclusive: 18.5 µM [inhibitor, single point]
CCn1c(SCC(=O)Nc2cc(C(C)(C)C)nn2-c2ccccc2)nnc1-c1cccs1	inconclusive: 10.4 µM [inhibitor, single point]
COc1ccc(OC)c(CN2CCN(c3ccc(S(=O)(=O)N4CCCC4)cn3)CC2)c1	inconclusive: 18.5 µM [inhibitor, single point]
Cc1cc(C)cc(N=c2c([N+](=O)[O-])nn(-c3cccc(Cl)c3)n2O)c1	active: 3.7 µM
O=C1CSC(c2cn(-c3ccccc3)nc2-c2cc3ccccc3oc2=O)N1Cc1ccccc1 (stereo unspecified)	inactive
O=C(Nc1cccc(Cl)c1)c1ccc(-n2cncn2)c([N+](=O)[O-])c1	inconclusive: 8.28 µM [inhibitor, single point]
CNc1cc(N2CCNCC2)ccc1[N+](=O)[O-]	inconclusive: 11.7 µM [inhibitor, single point]
CCn1cc(C(=O)NCCc2ccc(OC)cc2)c(=O)c2ccc(C)nc21	inactive
CCN(CC)c1ccc(/C=C(\C#N)c2nc(-c3cccs3)c(NC(C)=O)s2)cc1	active: 7.38 µM
COc1ccc(C(C)(C)C)cc1NC(=O)CCCN1C(=O)CN(C)C1=O	inactive
CCCCC(=O)Nc1ccc(C(=O)Nc2ccc(OC)cc2[N+](=O)[O-])cc1	active: 3.7 µM
